Test results from article PMC12724136, “Design of antibody structure-guided epitope vaccines in silico to induce potent immune responses against emerging viruses” (Journal of Virology, 2025).
No constants are given. Whether binding was seen depends on the method and setting. Some entries that bind do so weakly or less than the wild type.

Target: scFv1 conjugated with a GST tag (PET-N-GST-scFv1) (Nile tilapia (Oreochromis niloticus))
Assay: far-Western, overlay or dot blot

GYQLASEIRGTIPLSS [S3-WT expressed in prokaryotes (pET32a)]
binding: binds
